These are yes or no findings as the source states them, for the method shown. In cells and extracts the contact can be indirect. For part of these data: Binding can be weak; no strength is given. For part of these data: Sequences can lack the tags named with a protein.
B1: ATF7IP (protein, UniProt Q7TT18 1-1306)
chain: MDSVEEPQKKVFKARKTMRASDRQQLDAVHRVKGELLRADGKLLNGSHENGDLDPTSPLENTDCIQDREEVNGIDGICFQSEESTTEWKETPCMPNVAVKNKQEDLNSEALSPSITCDLSSRVTTEPGSGSPASDNPGCGTPVSDNPASDNPASDNPASDNPDSGDLAAGELATTVQATGDSACEEPPSSDPSSSDPTSSEPSSSEPTCSEPISGDPVSEEAASHDLVSGDSTCSEPVSGEPVSHEAASSEPATSEPASDEPVARVVAACELAPGESALDDCAPSGDSQSDEPPSSEDSLPRSVCSGLASGELTPGELSVEPATDTVKPSSSAVCEAGPDPDKTEPSSNNSDDCPGKSEDDEHLDQIQSKDSCDEGNKVNSNVVEKEEPLETHSAIICSDLPPENTTKIAEDPIAEPALEEEAISSSMEVDQSEKDEHKSPAEPVAAVSEDPAEEDKEDTVVDNTDSMETDEIIPILEKLAPTEDELSCFSKASLLPVETSQDLEDKMEGSFGSPSKQESSENLPKEAFLVLSDEEDLSCGKDESEAVAQSKMSTPEGEKSEKDGKAEEEERVPAEEQPPVRNEFSRRKRSKSEDMDSVESKRRRYMDEEYEAEFQVKITAKGDINQKLQKVIQWLLQEKLCALQCAVFDKTLAELKTRVEKIECNKRHKAVLTELQAKIARLTKRFGAAKDDLKKRQESPPNPPISPGKPANDTNSNNNMTYRNAGTVRQLLESKRNVSEGPPPSFQTPVNTVSSASHATSTAVVSSQPKLQTSATSGSLPAAPLLPAPSTATVVATTQVPSGTPQPTISLQPLPVILHVPVAVTSQPQLLQSHPGTLVTNQPSGNVEFISVQSQPTVSGLTKNPVSLPPLPNPTKPNIPSVPSPSSIQRNSSTTAAPLGTTLAVQAVPTAHSIVQATRTSLPTVGPSGLYSSSSSRGPIQMKIPISTFSPPSSAEQNSSATPRIVTENQTNKTVDSSINKKAADSTSQSGKASSSDSSGVIDLTMDDEESGTTQDPKKISPPSSSTVSTSQPMSRPLQPILPAPPLQPSGVPTSGPSQATIHVLPTAPTTVNVTHRPVTQVTTRLPVPRAPANHQVVYTTLPAPTTQAPLRGTVMQAPAVRQVNPQNSVTVRVPQTTTYVVNNGLTLGSAGPQLTVHHRPPQVHNEPPRPLHPAPLPEAPQPQRLPPEAASTSLPQKPHLKLARVQSQNGIVLSWSVLEVDRSCATVDSYHLYAYHEEPSATVPSQWKKIGEVKALPLPMACTLTQFVSGSKYYFAVRAKDIYGRFGPFCDPQSTDVISSSQNS
B2: PCGF6 (protein, UniProt Q99NA9 1-353)
chain: MDEAETDATENKRASEAKRASAMPPPPPPPPPISPPALIPAPAAGEEGPASLGQAGAAGCSRSRPPALEPERSLGRLRGRFEDYDEELEEEEEMEEEEEEEEEMSHFSLRLESGRADSEDEEERLINLVELTPYILCSICKGYLIDATTITECLHTFCKSCIVRHFYYSNRCPKCNIVVHQTQPLYNIRLDRQLQDIVYKLVINLEEREKKQMHDFYKERGLEVPKPAAPQPVPSSKGKTKKVLESVFRIPPELDMSLLLEFIGANEDTGHFKPLEKKFVRVSGEATIGHVEKFLRRKMGLDPACQVDIICGDHLLERYQTLREIRRAIGDTAMQDGLLVLHYGLVVSPLKIT
B3: HA-tagged ATF7IP (protein, UniProt Q7TT18 1-1306)
chain: MDSVEEPQKKVFKARKTMRASDRQQLDAVHRVKGELLRADGKLLNGSHENGDLDPTSPLENTDCIQDREEVNGIDGICFQSEESTTEWKETPCMPNVAVKNKQEDLNSEALSPSITCDLSSRVTTEPGSGSPASDNPGCGTPVSDNPASDNPASDNPASDNPDSGDLAAGELATTVQATGDSACEEPPSSDPSSSDPTSSEPSSSEPTCSEPISGDPVSEEAASHDLVSGDSTCSEPVSGEPVSHEAASSEPATSEPASDEPVARVVAACELAPGESALDDCAPSGDSQSDEPPSSEDSLPRSVCSGLASGELTPGELSVEPATDTVKPSSSAVCEAGPDPDKTEPSSNNSDDCPGKSEDDEHLDQIQSKDSCDEGNKVNSNVVEKEEPLETHSAIICSDLPPENTTKIAEDPIAEPALEEEAISSSMEVDQSEKDEHKSPAEPVAAVSEDPAEEDKEDTVVDNTDSMETDEIIPILEKLAPTEDELSCFSKASLLPVETSQDLEDKMEGSFGSPSKQESSENLPKEAFLVLSDEEDLSCGKDESEAVAQSKMSTPEGEKSEKDGKAEEEERVPAEEQPPVRNEFSRRKRSKSEDMDSVESKRRRYMDEEYEAEFQVKITAKGDINQKLQKVIQWLLQEKLCALQCAVFDKTLAELKTRVEKIECNKRHKAVLTELQAKIARLTKRFGAAKDDLKKRQESPPNPPISPGKPANDTNSNNNMTYRNAGTVRQLLESKRNVSEGPPPSFQTPVNTVSSASHATSTAVVSSQPKLQTSATSGSLPAAPLLPAPSTATVVATTQVPSGTPQPTISLQPLPVILHVPVAVTSQPQLLQSHPGTLVTNQPSGNVEFISVQSQPTVSGLTKNPVSLPPLPNPTKPNIPSVPSPSSIQRNSSTTAAPLGTTLAVQAVPTAHSIVQATRTSLPTVGPSGLYSSSSSRGPIQMKIPISTFSPPSSAEQNSSATPRIVTENQTNKTVDSSINKKAADSTSQSGKASSSDSSGVIDLTMDDEESGTTQDPKKISPPSSSTVSTSQPMSRPLQPILPAPPLQPSGVPTSGPSQATIHVLPTAPTTVNVTHRPVTQVTTRLPVPRAPANHQVVYTTLPAPTTQAPLRGTVMQAPAVRQVNPQNSVTVRVPQTTTYVVNNGLTLGSAGPQLTVHHRPPQVHNEPPRPLHPAPLPEAPQPQRLPPEAASTSLPQKPHLKLARVQSQNGIVLSWSVLEVDRSCATVDSYHLYAYHEEPSATVPSQWKKIGEVKALPLPMACTLTQFVSGSKYYFAVRAKDIYGRFGPFCDPQSTDVISSSQNS

By UniProt entry, the sequences of proteins in these tests, tags left out. Where a name states a change or a piece, a line headed by the entry shows the natural chain unless it says otherwise.
UniProt A2AWL7: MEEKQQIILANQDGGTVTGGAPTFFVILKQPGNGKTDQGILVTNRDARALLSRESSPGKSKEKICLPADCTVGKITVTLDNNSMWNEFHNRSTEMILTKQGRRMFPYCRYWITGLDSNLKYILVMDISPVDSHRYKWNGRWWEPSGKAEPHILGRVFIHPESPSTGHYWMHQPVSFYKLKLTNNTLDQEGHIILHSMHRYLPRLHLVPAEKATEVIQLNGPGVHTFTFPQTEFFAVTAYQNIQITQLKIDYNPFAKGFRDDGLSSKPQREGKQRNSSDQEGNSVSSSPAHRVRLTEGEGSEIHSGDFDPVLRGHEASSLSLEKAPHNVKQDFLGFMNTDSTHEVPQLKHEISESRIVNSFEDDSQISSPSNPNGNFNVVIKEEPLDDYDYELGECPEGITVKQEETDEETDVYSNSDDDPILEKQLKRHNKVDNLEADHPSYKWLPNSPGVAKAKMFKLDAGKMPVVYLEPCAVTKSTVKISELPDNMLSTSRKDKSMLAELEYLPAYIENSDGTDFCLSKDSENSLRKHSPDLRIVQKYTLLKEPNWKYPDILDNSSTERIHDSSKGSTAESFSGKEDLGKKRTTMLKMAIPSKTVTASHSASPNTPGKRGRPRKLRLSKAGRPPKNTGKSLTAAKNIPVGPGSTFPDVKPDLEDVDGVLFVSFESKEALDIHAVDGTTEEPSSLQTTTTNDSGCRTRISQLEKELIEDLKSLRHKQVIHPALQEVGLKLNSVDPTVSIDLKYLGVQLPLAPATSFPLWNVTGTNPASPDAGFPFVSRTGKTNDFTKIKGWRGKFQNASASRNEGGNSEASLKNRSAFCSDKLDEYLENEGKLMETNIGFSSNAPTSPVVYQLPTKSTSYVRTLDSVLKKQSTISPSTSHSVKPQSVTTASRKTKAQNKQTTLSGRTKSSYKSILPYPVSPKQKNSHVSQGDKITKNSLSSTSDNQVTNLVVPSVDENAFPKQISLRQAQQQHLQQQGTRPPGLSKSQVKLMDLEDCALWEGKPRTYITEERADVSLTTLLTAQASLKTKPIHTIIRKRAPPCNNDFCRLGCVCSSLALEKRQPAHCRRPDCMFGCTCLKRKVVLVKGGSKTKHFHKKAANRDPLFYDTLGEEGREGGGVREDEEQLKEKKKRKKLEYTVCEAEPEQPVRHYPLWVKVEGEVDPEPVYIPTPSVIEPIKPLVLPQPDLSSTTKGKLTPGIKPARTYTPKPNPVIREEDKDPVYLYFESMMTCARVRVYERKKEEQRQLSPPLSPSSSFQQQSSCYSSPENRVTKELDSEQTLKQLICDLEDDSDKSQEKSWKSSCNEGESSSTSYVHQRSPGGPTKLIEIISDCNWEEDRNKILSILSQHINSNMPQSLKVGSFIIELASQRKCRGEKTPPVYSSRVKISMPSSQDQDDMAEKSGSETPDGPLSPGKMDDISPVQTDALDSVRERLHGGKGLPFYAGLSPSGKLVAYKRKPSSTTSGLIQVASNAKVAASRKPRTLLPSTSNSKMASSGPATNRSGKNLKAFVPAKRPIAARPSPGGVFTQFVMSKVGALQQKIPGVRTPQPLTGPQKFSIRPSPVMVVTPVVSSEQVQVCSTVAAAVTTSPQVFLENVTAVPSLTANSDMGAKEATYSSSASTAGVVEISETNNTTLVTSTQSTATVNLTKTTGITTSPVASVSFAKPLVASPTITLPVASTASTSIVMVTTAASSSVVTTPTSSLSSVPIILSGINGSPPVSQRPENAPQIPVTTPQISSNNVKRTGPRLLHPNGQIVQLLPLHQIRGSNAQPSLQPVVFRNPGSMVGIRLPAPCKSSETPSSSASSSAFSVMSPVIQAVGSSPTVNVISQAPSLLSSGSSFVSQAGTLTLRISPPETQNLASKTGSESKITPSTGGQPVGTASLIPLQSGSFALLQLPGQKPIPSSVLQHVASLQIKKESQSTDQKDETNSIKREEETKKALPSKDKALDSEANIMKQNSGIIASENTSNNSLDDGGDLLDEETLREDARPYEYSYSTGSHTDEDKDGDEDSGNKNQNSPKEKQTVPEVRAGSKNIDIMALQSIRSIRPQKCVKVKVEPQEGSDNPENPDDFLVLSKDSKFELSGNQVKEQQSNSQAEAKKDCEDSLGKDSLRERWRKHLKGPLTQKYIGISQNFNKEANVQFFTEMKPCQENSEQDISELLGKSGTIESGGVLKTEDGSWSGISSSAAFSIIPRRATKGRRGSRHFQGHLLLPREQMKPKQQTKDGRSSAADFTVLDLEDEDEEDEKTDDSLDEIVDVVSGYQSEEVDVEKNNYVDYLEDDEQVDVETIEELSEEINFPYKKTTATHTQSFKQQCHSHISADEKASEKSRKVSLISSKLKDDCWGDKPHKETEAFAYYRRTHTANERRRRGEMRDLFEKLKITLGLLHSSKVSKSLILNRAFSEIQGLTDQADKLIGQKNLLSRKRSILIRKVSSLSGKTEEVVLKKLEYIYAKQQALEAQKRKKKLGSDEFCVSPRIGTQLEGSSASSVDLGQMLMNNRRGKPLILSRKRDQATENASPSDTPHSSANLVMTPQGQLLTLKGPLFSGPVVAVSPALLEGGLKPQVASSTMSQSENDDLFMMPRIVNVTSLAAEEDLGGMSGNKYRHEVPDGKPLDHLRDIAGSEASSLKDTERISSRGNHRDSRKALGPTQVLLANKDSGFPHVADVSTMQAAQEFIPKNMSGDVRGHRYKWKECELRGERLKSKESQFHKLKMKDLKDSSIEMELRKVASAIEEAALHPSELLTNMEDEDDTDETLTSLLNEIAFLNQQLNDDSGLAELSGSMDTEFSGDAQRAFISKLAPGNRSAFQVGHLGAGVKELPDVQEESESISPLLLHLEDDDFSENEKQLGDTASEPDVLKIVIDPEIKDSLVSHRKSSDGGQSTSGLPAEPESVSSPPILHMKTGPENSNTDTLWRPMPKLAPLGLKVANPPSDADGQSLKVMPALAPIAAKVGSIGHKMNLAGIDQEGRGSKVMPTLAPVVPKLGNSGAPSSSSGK

Tests used:
[1] = target: MGAΔFAM (mouse (endogenous in ESCs)) (UniProt A2AWL7); experiment: co-IP; anti-MGA antibody on Dynabeads with anti-rabbit IgG, overnight 4°C; nuclear extract / lysate (10 mM Tris-HCl pH8.0, 1 mM EDTA, 140 mM NaCl, 1% NP-40) of wild-type, parental, MGAΔFAM or Zmym2-null mouse ESCs; with or without a mixture of DNase and RNase; western blot
[2] = target: 3×Flag-tagged carboxy-terminal domain of MGA, FAM deleted (UniProt A2AWL7); experiment: co-IP; HEK293FT cells co-transfected with Flag-tagged MGA C-terminal portion (wild type or mutants) and HA-tagged ATF7IP; whole-cell extracts 48 h after transfection; Dynabeads with anti-mouse IgG antibody for immunoprecipitation; western blot

Binder | binding [1] | binding [2]
B1 | binds | –
B2 | binds | –
B3 | – | no binding
